The subject of the assay is BDF1 mice, P388 leukemia ip, median survival T/C. The experiment in a line: NCI In Vivo Anticancer Drug Screen. Data for tumor model P388 Leukemia (intraperitoneal) in B6D2F1 (BDF1) mice. The following applies: T/C endpoint: median survival time, higher T/C = longer survival. An outline of the steps:
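Mice carrying the transplantable tumour receive compound or vehicle. Survival is followed in each arm, and the treated measure is divided by the vehicle measure.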

The mark [1] stands for this setting: dose: 32.0 mg/kg/injection, schedule: Q01DX010 (ip), vehicle: saline.

The list is a part of this screen's results and no random one: it gathers tests that were run many times, whatever their T/C, doses with no T/C, and many T/C values between a quarter and a half above the control. Further doses and runs are listed elsewhere. T/C is the treated group as % of the vehicle group. Some doses have a count of surviving animals in place of a T/C: the source files T/C as zero there, which appears to mark a toxic dose or a test without result, not a measured value. Some survivor counts are full or nearly so, which does not show that the dose was tolerated: the source hardly ever lists a survival T/C far under the control, and the zero likely stands for such cases as well. Counts of survivors are from the toxicity check (mostly the fifth day) where no day follows; animals may have died later. Schedule codes are those of the source, read here as Q, the interval in days (D) or hours (H), X, the number of doses. Some entries were tested several times; the results are listed from low to high. Some structures stand for samples that the source files as different forms (salt, stereo form or complex); doses refer to the form tested. Where survival is the endpoint, this PubChem deposit counts one and a half times the control or more as active, and values a quarter to a half above the control carry no call in these data; other NCI protocols may use other cut-offs. Brackets with × count equal records among those shown. Some schedules carry Z or #; the key to these is not given. Some T/C values are followed by the survivors on the day toxicity was checked, most often the fifth; where none is given, no animal had died by that day.

With `O=C(NO)c1ccncc1`, the T/C is 136 % of control (dose: 200.0 mg/kg/injection, schedule: Q01DX009 (ip), vehicle: saline); 130 % of control (dose: 200.0 mg/kg/injection, schedule: Q01DX010 (ip), vehicle: water); 131 % of control (dose: 300.0 mg/kg/injection, schedule: Q01DX009 (ip), vehicle: saline); 136 % of control (dose: 335.0 mg/kg/injection, schedule: Q01DX010 (ip), vehicle: water); 140 % of control [5 of 6 alive] (dose: 400.0 mg/kg/injection, schedule: Q01DX009 (ip), vehicle: saline); 136 and 145 % of control (dose: 400.0 mg/kg/injection, schedule: Q01DX010 (ip), vehicle: water). Also, the T/C by setting is: (dose: 400.0 mg/kg/injection, schedule: Q#A X020 (ip), vehicle: water) 136 % of control; (dose: 500.0 mg/kg/injection, schedule: Q01DX010 (ip), vehicle: water) 140 % of control; (dose: 500.0 mg/kg/injection, schedule: Q02DX005 (ip), vehicle: water) 136 % of control; (dose: 600.0 mg/kg/injection, schedule: Q01DX010 (ip), vehicle: water) 140 % of control. In addition, the survivor count (dose: 800.0 mg/kg/injection, schedule: Q01DX010 (ip), vehicle: water) is 3 of 6 and 6 of 6.
For the compound `OC1CCCC12CC2` (stereo not drawn), the survivor count (dose: 200.0 mg/kg/injection, schedule: Q01DX009 (ip), vehicle: saline with Tween-80) was 4 of 6.
In the case of `Cc1c(N)nc([C@H](CC(N)=O)NC[C@H](N)C(N)=O)nc1C(=O)N[C@H](C(=O)N[C@H](C)[C@@H](O)[C@H](C)C(=O)N[C@H](C(=O)NCCc1nc(-c2nc(C(=O)NCCC[S+](C)C)cs2)cs1)[C@@H](C)O)C(OC1OC(CO)C(O)C(O)C1OC1OC(CO)C(O)C(OC(N)=O)C1O)c1cnc[nH]1` (stereo partly drawn), the survivor count is reported as 10 of 10 (dose: 0.03 mg/kg/injection, schedule: Q03HX040 (ip), vehicle: saline); 10 of 10 (dose: 0.06 mg/kg/injection, schedule: Q03HX040 (ip), vehicle: saline); 9 of 10 (dose: 0.25 mg/kg/injection, schedule: Q03HX040 (ip), vehicle: saline); 9 of 10 (dose: 1.0 mg/kg/injection, schedule: Q03HX040 (ip), vehicle: saline); 5 of 10 (dose: 2.0 mg/kg/injection, schedule: Q03HX040 (ip), vehicle: saline); 6 of 10 (dose: 4.0 mg/kg/injection, schedule: Q03HX040 (ip), vehicle: saline). Further, the survivor count was 9 of 10 (dose: 16.0 mg/kg/injection, schedule: Q03HX024 (ip), vehicle: saline); 3 of 6 (dose: 32.0 mg/kg/injection, schedule: Q01DX005 (ip), vehicle: water); 5 of 6 (dose: 32.0 mg/kg/injection, schedule: Q01DX009 (ip), vehicle: water); 6 of 6 under setting [1]; 6 of 6 (dose: 62.5 mg/kg/injection, schedule: Q01DX010 (ip), vehicle: saline); 0 of 6 (dose: 64.0 mg/kg/injection, schedule: Q01DX005 (ip), vehicle: water). The survivor count was 10 of 10 (dose: 64.0 mg/kg/injection, schedule: Q01DX009 (ip), vehicle: saline); 2 of 6, 4 of 6, 5 of 6 (dose: 64.0 mg/kg/injection, schedule: Q01DX010 (ip), vehicle: saline); 6 of 6 (dose: 64.0 mg/kg/injection, schedule: Q04DX003 (ip), vehicle: other); 5 of 6 (dose: 125.0 mg/kg/injection, schedule: Q01DX010 (ip), vehicle: saline); 7 of 10 (dose: 128.0 mg/kg/injection, schedule: Q01DX001 (ip), vehicle: saline); 6 of 6 (dose: 128.0 mg/kg/injection, schedule: Q04DX003 (ip), vehicle: other). Further, the survivor count was 8 of 10 (dose: 128.0 mg/kg/injection, schedule: Q04DX003 (ip), vehicle: saline) and 0 of 6 (dose: 250.0 mg/kg/injection, schedule: Q01DX010 (ip), vehicle: saline). For the same compound, the T/C reads like this: (dose: 2.0 mg/kg/injection, schedule: Q01DX005 (ip), vehicle: water) 125 % of control; (dose: 2.0 mg/kg/injection, schedule: Q01DX010 (ip), vehicle: saline) 90, 110, 120, 130 % of control (2×); (dose: 2.0 mg/kg/injection, schedule: Q03HX024 (ip), vehicle: saline) 127 % of control (2×); (dose: 3.5 mg/kg/injection, schedule: Q01DX009 (ip), vehicle: saline) 131 % of control; (dose: 4.0 mg/kg/injection, schedule: Q01DX010 (ip), vehicle: saline) 110, 120, 130, 140, 170 % of control; (dose: 4.0 mg/kg/injection, schedule: Q03HX016 (ip), vehicle: saline) 136 % of control. The T/C (dose: 4.0 mg/kg/injection, schedule: Q03HX024 (ip), vehicle: saline) is 127 % of control; the T/C (dose: 5.3 mg/kg/injection, schedule: Q01DX009 (ip), vehicle: saline) is 127 and 145 % of control; the T/C (dose: 6.5 mg/kg/injection, schedule: Q01DX009 (ip), vehicle: saline) was 127 % of control; the T/C (dose: 7.81 mg/kg/injection, schedule: Q01DX010 (ip), vehicle: saline) was 140 % of control; the T/C (dose: 8.0 mg/kg/injection, schedule: Q01DX009 (ip), vehicle: saline, evaluated on day 5) is 124 % of control; the T/C (dose: 8.0 mg/kg/injection, schedule: Q01DX009 (ip), vehicle: saline, evaluated on day 30) was 126 % of control. Besides, the T/C was 136 and 145 % of control (dose: 8.0 mg/kg/injection, schedule: Q01DX009 (ip), vehicle: saline, evaluated on day 45); 108, 125, 127, 130 % of control (dose: 8.0 mg/kg/injection, schedule: Q01DX009 (ip), vehicle: saline, evaluated on day 60); 115, 130, 140, 160, 215 % of control (dose: 8.0 mg/kg/injection, schedule: Q01DX010 (ip), vehicle: saline); 127 % of control (dose: 8.0 mg/kg/injection, schedule: Q03HX008 (ip), vehicle: saline); 131 and 140 % of control (dose: 12.0 mg/kg/injection, schedule: Q01DX009 (ip), vehicle: saline); 145 % of control (dose: 15.62 mg/kg/injection, schedule: Q01DX010 (ip), vehicle: saline). The T/C reads like this: (dose: 16.0 mg/kg/injection, schedule: Q01DX009 (ip), vehicle: saline, evaluated on day 5) 124 % of control; (dose: 16.0 mg/kg/injection, schedule: Q01DX009 (ip), vehicle: saline, evaluated on day 60) 120, 127, 130 % of control; (dose: 16.0 mg/kg/injection, schedule: Q01DX010 (ip), vehicle: saline) 110 (2×), 140, 150, 170 % of control; (dose: 16.0 mg/kg/injection, schedule: Q04DX003 (ip), vehicle: other) 126 % of control; (dose: 18.0 mg/kg/injection, schedule: Q01DX009 (ip), vehicle: saline) 127 % of control; (dose: 31.25 mg/kg/injection, schedule: Q01DX010 (ip), vehicle: saline) 127 % of control. Besides, the T/C (dose: 32.0 mg/kg/injection, schedule: Q01DX001 (ip), vehicle: saline) is 136 % of control; the T/C (dose: 32.0 mg/kg/injection, schedule: Q01DX009 (ip), vehicle: saline, evaluated on day 5) is 104 % of control; the T/C (dose: 32.0 mg/kg/injection, schedule: Q01DX009 (ip), vehicle: saline, evaluated on day 60) is 104, 110, 127 % of control; the T/C under setting [1] is 95, 110 (2×), 125 % of control; the T/C (dose: 32.0 mg/kg/injection, schedule: Q04DX003 (ip), vehicle: saline) is 127 % of control; the T/C (dose: 32.0 mg/kg/injection, schedule: Q08DX002 (ip), vehicle: saline) is 127 % of control. For the setting “dose: 64.0 mg/kg/injection, schedule: Q08DX002 (ip), vehicle: saline”, the T/C is 136 % of control.

The values above are taken from PubChem BioAssay AID328 (DTP/NCI, 2004).
